Results reported in article PMC2690654.
These are yes or no findings as the source states them, for the method shown. For part of these data: In cells and extracts the contact can be indirect. Some binding calls cover weakened binding; strength is not graded here.

The chains behind the UniProt entries cited, without tags or fusion partners. Residues count along the entry.
UniProt P06761, residues 19-654: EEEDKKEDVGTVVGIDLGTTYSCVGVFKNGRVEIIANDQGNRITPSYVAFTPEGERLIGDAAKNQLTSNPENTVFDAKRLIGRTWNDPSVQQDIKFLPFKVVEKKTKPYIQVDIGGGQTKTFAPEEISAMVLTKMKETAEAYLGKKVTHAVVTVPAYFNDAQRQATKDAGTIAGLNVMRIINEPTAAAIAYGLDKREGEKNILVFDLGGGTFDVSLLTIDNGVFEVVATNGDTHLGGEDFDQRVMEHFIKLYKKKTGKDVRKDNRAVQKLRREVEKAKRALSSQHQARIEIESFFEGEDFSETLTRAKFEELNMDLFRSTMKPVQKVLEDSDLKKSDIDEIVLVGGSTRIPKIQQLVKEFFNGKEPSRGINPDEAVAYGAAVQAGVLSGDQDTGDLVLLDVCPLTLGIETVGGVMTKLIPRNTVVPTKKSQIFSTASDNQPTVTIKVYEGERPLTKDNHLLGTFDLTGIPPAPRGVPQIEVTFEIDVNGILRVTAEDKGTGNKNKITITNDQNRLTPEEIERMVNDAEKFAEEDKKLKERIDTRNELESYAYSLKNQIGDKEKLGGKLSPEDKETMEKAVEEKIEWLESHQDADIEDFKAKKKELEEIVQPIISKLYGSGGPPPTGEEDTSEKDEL
UniProt P30904: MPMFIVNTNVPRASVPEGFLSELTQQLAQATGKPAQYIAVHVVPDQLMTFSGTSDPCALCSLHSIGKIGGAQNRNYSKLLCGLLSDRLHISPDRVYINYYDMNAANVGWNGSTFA

T1: α1-inhibitor III (rat (endogenous in bladder)) (UniProt P14046)
T1 sequence: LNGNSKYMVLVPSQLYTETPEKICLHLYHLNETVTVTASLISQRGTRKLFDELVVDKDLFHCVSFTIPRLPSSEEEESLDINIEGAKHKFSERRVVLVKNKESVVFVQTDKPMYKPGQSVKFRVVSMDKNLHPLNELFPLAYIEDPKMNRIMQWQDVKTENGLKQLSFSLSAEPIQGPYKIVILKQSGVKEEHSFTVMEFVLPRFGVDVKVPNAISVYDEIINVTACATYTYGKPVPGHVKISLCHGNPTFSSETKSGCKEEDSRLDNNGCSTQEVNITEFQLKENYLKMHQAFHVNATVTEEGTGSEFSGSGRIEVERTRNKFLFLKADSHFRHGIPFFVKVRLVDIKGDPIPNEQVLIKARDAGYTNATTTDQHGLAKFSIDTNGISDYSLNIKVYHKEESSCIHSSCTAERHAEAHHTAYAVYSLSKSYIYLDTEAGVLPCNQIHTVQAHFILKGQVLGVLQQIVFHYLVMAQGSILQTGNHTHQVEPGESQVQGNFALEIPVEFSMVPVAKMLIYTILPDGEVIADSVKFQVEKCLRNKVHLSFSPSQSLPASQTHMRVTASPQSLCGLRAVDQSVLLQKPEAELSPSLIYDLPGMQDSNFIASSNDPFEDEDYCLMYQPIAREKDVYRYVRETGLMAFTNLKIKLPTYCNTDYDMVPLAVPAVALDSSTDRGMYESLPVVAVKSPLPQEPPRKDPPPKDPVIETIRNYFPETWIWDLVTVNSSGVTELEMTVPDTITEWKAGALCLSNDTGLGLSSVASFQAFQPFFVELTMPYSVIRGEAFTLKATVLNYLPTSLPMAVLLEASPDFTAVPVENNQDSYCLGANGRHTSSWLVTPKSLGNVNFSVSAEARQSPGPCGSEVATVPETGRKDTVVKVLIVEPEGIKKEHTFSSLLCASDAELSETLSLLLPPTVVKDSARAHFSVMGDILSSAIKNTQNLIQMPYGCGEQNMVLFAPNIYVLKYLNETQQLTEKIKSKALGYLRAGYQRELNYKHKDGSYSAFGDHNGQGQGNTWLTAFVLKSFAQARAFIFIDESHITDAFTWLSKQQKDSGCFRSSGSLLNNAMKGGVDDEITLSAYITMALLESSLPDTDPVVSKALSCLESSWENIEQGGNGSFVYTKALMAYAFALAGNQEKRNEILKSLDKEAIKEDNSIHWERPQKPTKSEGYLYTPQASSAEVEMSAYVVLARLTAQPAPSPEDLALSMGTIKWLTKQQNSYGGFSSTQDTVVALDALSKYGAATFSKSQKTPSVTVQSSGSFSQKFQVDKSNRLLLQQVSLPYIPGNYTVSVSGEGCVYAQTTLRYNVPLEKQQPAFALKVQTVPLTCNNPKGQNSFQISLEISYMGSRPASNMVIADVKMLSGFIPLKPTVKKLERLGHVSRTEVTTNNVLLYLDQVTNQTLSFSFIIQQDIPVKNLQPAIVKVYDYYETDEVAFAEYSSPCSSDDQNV

B1: α1-inhibitor III (protein, UniProt P14046 25-1477)
chain: T1 sequence

Experiments:
[1] = biological target: T1, α1-inhibitor III (rat (endogenous in bladder)); assay: bands reactive in both MIF and A1-I3 western blots after SDS-PAGE; GRP78 immunoprecipitates of rat bladder homogenates; the same samples blotted for MIF and for A1-I3; bands at 130 and 80 kDa seen in both blots
[2] = biological target: glucose regulated protein 78 (rat (endogenous in bladder)) (UniProt P06761); assay: co-IP; rat bladder homogenates (250 µg protein; rats treated with saline or substance P) immunoprecipitated with GRP78 polyclonal antibody (5 µg) and protein G agarose; SDS-PAGE; western blotting for MIF or A1-I3

Molecule | binding [1] | binding [2]
Macrophage migration inhibitory factor (from UniProt P30904 1-115) (ligand) | binds | binds
B1 | – | binds
